The source of these data is PMC4474807.

Protein sequences, listed by entry. Tags and fused reporters are not part of them.
UniProt Q07157: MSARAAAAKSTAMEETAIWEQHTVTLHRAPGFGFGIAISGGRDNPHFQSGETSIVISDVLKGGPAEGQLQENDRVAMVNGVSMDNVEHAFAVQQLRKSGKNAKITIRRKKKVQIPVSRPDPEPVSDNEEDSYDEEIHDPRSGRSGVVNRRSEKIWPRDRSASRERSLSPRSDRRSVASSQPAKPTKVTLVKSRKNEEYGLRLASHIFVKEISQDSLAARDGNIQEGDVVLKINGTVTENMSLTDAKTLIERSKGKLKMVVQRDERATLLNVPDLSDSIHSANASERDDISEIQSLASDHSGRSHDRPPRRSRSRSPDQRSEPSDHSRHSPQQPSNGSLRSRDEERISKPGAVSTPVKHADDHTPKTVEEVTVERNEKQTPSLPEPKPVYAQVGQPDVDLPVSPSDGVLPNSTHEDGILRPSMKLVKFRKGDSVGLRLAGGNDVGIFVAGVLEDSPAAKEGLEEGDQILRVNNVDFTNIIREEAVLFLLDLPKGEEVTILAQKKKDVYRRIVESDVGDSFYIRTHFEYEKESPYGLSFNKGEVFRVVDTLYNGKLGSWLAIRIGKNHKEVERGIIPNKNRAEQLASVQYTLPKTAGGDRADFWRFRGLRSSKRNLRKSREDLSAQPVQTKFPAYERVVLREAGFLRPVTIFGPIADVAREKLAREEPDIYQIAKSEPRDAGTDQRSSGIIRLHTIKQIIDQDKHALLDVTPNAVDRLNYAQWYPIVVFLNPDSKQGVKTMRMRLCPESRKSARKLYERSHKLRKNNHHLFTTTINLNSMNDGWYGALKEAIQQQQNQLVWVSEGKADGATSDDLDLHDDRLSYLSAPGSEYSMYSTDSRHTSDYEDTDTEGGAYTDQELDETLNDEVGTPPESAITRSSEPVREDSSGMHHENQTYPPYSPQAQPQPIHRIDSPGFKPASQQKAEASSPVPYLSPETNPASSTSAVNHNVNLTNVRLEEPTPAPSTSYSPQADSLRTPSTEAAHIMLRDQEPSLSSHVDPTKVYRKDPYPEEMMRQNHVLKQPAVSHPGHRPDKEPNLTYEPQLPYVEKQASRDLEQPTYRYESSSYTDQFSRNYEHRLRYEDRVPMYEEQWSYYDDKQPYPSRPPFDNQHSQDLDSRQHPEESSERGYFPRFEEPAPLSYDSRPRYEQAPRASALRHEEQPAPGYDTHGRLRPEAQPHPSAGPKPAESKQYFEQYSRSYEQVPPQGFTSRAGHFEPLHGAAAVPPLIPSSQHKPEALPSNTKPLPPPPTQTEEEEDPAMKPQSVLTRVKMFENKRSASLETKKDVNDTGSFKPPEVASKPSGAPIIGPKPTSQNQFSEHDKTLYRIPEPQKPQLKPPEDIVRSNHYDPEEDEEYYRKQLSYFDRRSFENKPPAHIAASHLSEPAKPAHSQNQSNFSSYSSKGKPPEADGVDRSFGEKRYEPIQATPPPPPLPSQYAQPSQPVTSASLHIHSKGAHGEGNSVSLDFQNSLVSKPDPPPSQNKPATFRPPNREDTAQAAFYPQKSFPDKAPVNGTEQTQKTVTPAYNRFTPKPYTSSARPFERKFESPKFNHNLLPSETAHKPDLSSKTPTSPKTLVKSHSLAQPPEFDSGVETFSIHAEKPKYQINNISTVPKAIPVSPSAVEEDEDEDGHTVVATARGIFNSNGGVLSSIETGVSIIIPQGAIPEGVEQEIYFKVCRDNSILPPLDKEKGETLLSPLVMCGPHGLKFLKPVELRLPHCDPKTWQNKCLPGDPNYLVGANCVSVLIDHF

These are yes or no findings as the source states them, for the method shown. In cells and extracts the contact can be indirect. Some entries that bind do so weakly or less than the wild type.

Assay [1] concerns the target T1, Occludin (human (endogenous in HBMECs)) (UniProt Q16625).
T1 sequence: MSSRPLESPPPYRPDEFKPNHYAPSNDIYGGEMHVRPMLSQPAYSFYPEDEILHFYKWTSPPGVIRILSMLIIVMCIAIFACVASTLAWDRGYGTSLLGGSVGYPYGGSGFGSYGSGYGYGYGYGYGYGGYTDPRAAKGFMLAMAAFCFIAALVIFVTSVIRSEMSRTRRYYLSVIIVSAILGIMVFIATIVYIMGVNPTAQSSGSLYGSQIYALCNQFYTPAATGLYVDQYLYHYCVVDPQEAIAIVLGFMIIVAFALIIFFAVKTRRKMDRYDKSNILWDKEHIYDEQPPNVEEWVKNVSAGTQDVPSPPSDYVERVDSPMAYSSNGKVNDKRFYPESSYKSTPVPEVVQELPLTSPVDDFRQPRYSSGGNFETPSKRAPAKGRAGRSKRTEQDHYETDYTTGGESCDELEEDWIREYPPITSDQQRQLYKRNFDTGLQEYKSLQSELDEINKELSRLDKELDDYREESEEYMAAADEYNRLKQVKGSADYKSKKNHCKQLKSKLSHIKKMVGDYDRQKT
Kind of assay: co-IP; endogenous proteins from HBMEC lysates in modified RIPA buffer (50 mM Tris-HCl pH 7.5, 150 mM NaCl, 1 mM EDTA, 0.5% sodium deoxycholate, 1% Triton X-100, 0.1% SDS); 350 ug total protein with 2.5 ug anti-ZO-1 or anti-Occludin antibody overnight at 4 C, protein A/G agarose beads; cells untreated, treated with 100 nM thrombin for different times, or pretreated with Ang-1 (100 ng/ml, 15 min) before thrombin; also after scramble or PTPN-2 siRNA.

The target in assay [2] is Zona Occludens-1 (ZO-1) (human (endogenous in HBMECs)) (UniProt Q07157). Described as above.

As to “Zona Occludens-1 (ZO-1) (from UniProt Q07157 1-1748)”, the binding result in assay [1] is given as “binds”.

B1: Occludin (protein, UniProt Q16625 1-522)
chain: T1 sequence
Consider B1, for which, in assay [2], the binding entry was “binds”.
